Assay results from PMC8810934.
No constants are given. Whether binding was seen depends on the method and setting. Binding seen in cells or lysates may run through a third protein. Some binding calls cover weakened binding; strength is not graded here.

Chains of the proteins cited; added tags and fusions are not shown. Lines headed by an entry give the natural chain unless they say otherwise; changes in a name come on top.
UniProt P13395: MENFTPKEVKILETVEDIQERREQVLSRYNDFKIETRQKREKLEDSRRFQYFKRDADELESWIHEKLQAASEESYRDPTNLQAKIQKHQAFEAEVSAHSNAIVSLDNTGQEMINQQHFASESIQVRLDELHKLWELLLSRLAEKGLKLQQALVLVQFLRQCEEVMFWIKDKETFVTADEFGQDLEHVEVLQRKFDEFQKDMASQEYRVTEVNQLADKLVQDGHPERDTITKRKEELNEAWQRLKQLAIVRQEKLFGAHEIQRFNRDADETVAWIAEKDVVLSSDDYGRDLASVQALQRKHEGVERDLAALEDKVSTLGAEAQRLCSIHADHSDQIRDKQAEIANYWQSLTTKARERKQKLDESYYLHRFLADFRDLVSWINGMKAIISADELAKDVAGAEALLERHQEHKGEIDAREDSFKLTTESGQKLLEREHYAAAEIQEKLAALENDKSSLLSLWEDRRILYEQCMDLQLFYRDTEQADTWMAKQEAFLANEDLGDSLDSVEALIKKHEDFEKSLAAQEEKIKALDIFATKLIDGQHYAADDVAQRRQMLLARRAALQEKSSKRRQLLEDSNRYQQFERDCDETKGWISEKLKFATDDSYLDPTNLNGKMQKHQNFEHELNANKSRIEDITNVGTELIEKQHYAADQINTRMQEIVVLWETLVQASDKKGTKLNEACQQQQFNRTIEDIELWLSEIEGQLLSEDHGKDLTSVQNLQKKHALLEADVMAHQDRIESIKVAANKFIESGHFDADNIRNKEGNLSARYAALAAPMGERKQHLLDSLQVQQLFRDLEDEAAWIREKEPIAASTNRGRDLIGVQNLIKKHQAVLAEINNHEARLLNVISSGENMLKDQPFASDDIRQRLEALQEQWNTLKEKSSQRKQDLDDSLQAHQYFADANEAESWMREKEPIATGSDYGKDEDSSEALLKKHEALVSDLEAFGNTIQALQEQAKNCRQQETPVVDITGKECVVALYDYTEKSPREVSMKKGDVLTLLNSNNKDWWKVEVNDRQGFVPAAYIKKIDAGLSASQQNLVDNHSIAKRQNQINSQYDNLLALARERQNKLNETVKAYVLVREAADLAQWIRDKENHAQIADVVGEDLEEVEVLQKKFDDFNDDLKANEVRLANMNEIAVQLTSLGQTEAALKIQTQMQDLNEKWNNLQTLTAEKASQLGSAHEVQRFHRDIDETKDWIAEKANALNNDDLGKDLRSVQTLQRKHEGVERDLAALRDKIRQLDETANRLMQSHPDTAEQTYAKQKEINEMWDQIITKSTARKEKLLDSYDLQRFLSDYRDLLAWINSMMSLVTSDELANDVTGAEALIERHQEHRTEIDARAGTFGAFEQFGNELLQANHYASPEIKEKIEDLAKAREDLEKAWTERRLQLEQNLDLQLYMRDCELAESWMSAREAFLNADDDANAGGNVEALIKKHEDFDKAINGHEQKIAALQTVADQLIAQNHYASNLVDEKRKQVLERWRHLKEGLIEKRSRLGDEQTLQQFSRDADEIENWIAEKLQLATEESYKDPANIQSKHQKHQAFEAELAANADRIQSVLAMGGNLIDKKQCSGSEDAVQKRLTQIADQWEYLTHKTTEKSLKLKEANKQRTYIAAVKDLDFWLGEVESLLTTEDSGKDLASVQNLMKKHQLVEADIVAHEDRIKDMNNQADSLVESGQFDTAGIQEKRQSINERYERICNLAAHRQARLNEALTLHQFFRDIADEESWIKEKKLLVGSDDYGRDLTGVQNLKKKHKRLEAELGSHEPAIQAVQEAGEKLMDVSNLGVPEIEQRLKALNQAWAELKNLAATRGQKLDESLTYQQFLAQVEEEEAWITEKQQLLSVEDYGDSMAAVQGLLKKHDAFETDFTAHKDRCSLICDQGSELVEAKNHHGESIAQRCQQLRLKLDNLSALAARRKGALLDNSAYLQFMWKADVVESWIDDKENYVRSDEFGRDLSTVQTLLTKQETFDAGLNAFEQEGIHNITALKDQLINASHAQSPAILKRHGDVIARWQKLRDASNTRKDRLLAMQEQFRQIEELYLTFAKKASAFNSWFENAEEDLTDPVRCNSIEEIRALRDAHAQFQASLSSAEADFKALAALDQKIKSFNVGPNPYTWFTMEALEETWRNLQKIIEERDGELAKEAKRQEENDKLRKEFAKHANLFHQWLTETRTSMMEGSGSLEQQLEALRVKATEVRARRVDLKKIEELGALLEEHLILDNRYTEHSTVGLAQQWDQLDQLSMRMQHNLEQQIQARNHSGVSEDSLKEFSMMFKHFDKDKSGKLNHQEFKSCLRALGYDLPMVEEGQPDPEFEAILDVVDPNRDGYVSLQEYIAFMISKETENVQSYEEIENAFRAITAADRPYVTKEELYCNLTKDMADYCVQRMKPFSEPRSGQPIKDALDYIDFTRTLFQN
UniProt Q00963: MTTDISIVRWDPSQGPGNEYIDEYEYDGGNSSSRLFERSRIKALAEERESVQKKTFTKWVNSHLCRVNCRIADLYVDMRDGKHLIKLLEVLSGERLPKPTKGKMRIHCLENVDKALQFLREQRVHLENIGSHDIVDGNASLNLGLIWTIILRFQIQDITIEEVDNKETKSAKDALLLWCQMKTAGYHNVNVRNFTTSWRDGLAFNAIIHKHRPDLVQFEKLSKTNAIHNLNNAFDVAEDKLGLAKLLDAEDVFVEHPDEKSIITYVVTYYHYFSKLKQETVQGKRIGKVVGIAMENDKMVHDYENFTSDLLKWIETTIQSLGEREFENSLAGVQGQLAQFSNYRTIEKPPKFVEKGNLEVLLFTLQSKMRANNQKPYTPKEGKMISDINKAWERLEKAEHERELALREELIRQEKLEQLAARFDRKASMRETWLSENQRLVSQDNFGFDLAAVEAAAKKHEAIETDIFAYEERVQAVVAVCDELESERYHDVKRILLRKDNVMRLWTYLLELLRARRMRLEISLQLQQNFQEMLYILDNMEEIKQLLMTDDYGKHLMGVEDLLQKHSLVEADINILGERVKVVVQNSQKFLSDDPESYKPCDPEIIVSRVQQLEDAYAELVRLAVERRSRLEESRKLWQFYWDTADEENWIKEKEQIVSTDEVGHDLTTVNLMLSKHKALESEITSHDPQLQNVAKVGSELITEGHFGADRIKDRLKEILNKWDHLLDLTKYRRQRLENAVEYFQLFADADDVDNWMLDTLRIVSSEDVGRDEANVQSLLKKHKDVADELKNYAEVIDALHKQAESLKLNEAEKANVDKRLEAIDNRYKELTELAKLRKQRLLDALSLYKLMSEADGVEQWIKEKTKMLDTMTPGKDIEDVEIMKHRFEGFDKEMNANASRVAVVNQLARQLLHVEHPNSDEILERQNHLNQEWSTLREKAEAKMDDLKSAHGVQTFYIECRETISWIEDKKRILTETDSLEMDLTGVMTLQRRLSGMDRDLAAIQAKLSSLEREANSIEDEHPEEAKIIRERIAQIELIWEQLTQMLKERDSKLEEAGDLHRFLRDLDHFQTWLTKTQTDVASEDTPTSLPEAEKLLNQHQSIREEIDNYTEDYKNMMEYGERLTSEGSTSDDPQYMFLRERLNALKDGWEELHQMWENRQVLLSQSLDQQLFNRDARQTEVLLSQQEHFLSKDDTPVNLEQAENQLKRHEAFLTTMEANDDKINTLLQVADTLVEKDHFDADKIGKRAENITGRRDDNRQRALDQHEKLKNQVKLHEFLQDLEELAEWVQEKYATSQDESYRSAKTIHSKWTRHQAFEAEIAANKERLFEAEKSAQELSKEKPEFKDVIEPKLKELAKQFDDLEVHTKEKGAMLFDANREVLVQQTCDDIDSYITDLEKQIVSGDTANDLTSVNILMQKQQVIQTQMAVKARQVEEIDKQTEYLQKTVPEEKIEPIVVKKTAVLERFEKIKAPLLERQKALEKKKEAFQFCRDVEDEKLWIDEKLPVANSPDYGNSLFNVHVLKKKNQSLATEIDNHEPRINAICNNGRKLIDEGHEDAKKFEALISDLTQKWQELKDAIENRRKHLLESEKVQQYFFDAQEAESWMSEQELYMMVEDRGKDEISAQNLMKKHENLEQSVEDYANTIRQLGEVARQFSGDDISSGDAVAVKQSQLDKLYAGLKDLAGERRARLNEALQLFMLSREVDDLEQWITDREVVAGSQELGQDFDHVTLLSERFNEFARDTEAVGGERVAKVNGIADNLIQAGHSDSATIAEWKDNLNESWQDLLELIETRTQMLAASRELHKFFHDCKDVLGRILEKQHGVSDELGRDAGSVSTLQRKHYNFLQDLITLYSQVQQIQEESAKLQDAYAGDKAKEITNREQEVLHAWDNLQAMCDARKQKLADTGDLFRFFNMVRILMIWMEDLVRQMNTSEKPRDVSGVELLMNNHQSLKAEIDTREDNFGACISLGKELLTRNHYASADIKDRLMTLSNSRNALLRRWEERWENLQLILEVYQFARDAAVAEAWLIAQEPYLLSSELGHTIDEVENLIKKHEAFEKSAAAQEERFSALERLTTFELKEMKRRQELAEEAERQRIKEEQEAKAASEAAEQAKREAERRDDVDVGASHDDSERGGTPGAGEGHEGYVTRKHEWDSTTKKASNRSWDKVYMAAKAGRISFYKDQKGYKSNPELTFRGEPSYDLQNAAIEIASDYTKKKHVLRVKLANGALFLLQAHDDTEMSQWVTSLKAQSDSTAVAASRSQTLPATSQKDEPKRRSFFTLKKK

Target: Drosophila α-spectrin (Drosophila (endogenous in adult heads)) (UniProt P13395)
Experiment: co-IP; Drosophila adult head extracts in RIPA buffer; ~500 µg lysate protein with 10 µg anti-Drosophila α-spectrin 3A9 or normal mouse IgG; Protein A agarose overnight at 4 °C; washed 3 × with RIPA buffer

binding	Substance
binds	N-terminally truncated wild-type Drosophila β-spectrin fused at the C-terminus to GFP (from UniProt Q00963 45-2291) (domain or fragment)
binds	SCA5 (L246P) Drosophila β-spectrin fused at the C-terminus to GFP (from UniProt Q00963 1-2291)
binds	wild-type Drosophila β-spectrin fused at the C-terminus to GFP (from UniProt Q00963 1-2291)
